The text below walks through data of PMC7001640.

Sequences of proteins named here, by UniProt entry; tags and fusion partners are left off.
UniProt Q07100: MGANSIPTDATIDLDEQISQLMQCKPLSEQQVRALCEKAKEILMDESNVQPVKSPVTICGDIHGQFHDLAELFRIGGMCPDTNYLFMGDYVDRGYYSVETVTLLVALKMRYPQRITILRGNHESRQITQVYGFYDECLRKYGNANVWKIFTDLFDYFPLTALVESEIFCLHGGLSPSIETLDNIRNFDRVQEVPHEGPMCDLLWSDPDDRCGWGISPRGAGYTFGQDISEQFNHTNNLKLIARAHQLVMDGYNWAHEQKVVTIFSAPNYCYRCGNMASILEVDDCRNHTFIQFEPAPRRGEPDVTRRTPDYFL
UniProt P48578: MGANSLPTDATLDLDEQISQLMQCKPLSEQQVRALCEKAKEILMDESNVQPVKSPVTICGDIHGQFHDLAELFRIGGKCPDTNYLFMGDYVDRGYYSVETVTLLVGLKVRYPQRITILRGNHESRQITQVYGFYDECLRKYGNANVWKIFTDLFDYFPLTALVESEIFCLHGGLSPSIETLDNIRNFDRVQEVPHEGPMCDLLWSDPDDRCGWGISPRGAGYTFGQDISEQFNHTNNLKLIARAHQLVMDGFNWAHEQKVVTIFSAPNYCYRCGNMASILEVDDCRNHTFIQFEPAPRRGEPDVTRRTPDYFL
UniProt Q07099: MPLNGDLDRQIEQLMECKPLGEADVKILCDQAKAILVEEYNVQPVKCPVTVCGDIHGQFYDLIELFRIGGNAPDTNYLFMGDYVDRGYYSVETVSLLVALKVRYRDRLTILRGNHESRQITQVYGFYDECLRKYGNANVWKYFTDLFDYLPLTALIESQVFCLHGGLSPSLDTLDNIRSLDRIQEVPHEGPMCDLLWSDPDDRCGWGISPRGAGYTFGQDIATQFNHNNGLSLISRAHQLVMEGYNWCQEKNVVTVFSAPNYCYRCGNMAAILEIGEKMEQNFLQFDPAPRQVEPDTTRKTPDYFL
UniProt Q07098: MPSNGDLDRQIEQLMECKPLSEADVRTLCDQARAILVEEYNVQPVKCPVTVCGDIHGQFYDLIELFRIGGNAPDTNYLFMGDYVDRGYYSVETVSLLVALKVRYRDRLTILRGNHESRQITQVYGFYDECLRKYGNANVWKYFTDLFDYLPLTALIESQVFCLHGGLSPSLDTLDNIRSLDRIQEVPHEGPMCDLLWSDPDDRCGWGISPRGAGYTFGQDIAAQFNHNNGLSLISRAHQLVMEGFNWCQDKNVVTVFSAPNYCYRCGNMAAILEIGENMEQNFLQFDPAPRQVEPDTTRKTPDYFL
UniProt O04951: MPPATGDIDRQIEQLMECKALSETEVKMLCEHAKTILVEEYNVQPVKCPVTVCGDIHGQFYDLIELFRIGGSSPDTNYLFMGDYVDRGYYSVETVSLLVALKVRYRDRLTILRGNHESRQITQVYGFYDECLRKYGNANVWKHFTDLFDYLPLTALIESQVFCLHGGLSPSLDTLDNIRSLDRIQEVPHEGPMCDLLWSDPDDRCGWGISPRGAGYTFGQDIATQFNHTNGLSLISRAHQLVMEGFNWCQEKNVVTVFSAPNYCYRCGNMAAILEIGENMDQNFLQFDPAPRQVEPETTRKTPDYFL
UniProt Q8VZS8: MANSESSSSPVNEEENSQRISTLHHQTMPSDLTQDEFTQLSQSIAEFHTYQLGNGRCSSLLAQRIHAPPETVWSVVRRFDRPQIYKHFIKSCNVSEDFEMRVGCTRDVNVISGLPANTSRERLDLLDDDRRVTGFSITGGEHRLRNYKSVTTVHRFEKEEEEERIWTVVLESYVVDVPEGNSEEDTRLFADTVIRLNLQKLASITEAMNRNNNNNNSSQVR
UniProt O49686: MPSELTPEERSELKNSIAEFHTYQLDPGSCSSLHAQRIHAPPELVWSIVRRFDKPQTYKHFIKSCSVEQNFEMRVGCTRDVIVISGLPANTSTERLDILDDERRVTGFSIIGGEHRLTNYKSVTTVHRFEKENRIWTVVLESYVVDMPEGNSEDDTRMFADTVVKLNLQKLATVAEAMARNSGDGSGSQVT

Read-outs that look alike come from different tables or passages of the source. No constants are given. Whether binding was seen depends on the method and setting. For part of these data: In cells and extracts the contact can be indirect. Some results given as binding are weak or reduced against the parent protein; the word gives no strength. For part of these data: Where a sequence is shown, tags or fusion partners need not be part of it.

The target of assay [1] is PP2A catalytic subunit PP2AC3 (Arabidopsis thaliana) (UniProt Q07100). Nature of the assay: co-IP; in vivo; for PYL1 with or without treatment with 10 x 10^-6 M ABA for 4 h.
In assay [2] the target is PP2A catalytic subunit PP2AC4 (Arabidopsis thaliana) (UniProt P48578). The assay is described as above.
Assay [3] addresses T1, PP2A scaffolding A subunit ROOTS CURL IN … ACID1 (RCN1) (Arabidopsis thaliana) (UniProt Q38845).
T1 sequence: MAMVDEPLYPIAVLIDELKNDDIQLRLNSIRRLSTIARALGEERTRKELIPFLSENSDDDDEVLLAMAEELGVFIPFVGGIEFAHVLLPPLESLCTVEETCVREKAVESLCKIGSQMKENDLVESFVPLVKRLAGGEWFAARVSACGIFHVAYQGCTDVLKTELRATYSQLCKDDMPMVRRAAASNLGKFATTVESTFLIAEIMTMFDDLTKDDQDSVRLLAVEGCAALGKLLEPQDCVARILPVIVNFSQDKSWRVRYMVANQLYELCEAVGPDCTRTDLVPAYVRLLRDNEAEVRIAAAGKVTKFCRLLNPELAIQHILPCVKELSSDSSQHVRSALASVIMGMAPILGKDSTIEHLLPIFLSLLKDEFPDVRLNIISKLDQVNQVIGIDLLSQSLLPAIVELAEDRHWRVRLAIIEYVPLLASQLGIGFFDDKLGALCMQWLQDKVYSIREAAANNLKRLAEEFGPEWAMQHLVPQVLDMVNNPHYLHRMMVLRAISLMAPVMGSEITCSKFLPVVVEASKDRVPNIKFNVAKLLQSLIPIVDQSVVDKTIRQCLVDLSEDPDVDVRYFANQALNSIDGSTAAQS
The assay is described as above.

Assay [4] concerns the target GST-PP2AC3 (Arabidopsis thaliana) (UniProt Q07100). As to the kind of experiment: pull-down; in vitro; GST fusions as bait, PYL1-His as prey; both purified.
Assay [5] addresses GST-PP2AC4 (Arabidopsis thaliana) (UniProt P48578). Described as above.
Assay [6] addresses PP2AC4, luciferase complementation fusion (Arabidopsis thaliana) (UniProt P48578). As to the kind of experiment: split reporter; firefly luciferase complementation imaging (LCI); Agrobacterium-mediated transient coexpression in Nicotiana benthamiana leaves; for PYL1 with PP2AC4 with or without ABA.
Assay [7] deals with PP2AC4, yeast two-hybrid fusion (Arabidopsis thaliana) (UniProt P48578). As to the kind of experiment: two-hybrid; yeast; 4D selective medium lacking Trp/Leu/His/Ade; with or without 50 x 10^-6 M ABA.
Assay [8] concerns the target PP2AC1, yeast two-hybrid fusion (Arabidopsis thaliana) (UniProt Q07099). The assay is described as above.
Assay [9] concerns the target PP2AC2, yeast two-hybrid fusion (Arabidopsis thaliana) (UniProt Q07098). The assay is described as above.
For assay [10], the target named is PP2AC5, yeast two-hybrid fusion (Arabidopsis thaliana) (UniProt O04951). Described as above.
The target of assay [11] is PP2AC3, yeast two-hybrid fusion (Arabidopsis thaliana) (UniProt Q07100). The description is as above.
In assay [12] the target is PP2A catalytic subunit PP2AC3 (Arabidopsis thaliana) (UniProt Q07100). As to the kind of experiment: co-IP; proteins extracted from cotransformed Arabidopsis protoplasts; in vivo.
The target of assay [13] is PP2A catalytic subunit PP2AC4 (Arabidopsis thaliana) (UniProt P48578). The description is as above.
For assay [14], the target named is PP2AC3, luciferase complementation fusion (Arabidopsis thaliana) (UniProt Q07100). As to the kind of experiment: split reporter; firefly luciferase complementation imaging (LCI); Agrobacterium-mediated transient coexpression in Nicotiana benthamiana leaves; for PYL1 with PP2AC4 with or without ABA.
Assay [15] deals with PP2AC4, luciferase complementation fusion (Arabidopsis thaliana) (UniProt P48578). The description is as above. This is another data set of the same source.

For “PYL1 ABA receptor (from UniProt Q8VZS8 1-221)”, the binding entry in assay [1] is on record as “binds”; in assay [2], “binds”; in [3], “no binding”.

Turning to “PYL1-His (from UniProt Q8VZS8 1-221) (receptor)”, the binding result in assay [4] and in assay [5] was “binds” each time.

For the molecule “PYL1, luciferase complementation fusion (from UniProt Q8VZS8 1-221) (receptor)”, the binding entry in assay [6] is listed as “binds”.

“PYR1 ABA receptor (from UniProt O49686 1-191)”: the binding result in [1] and in assay [2] was “binds” each time.

As to “PYL1, yeast two-hybrid fusion (from UniProt Q8VZS8 1-221) (receptor)”, the binding result in [7], in assay [8], in assay [9], in assay [10] and in [11] was “binds” each time.

B1: PYL2 ABA receptor (receptor, UniProt O80992 1-190)
chain: MSSSPAVKGLTDEEQKTLEPVIKTYHQFEPDPTTCTSLITQRIHAPASVVWPLIRRFDNPERYKHFVKRCRLISGDGDVGSVREVTVISGLPASTSTERLEFVDDDHRVLSFRVVGGEHRLKNYKSVTSVNEFLNQDSGKVYTVVLESYTVDIPEGNTEEDTKMFVDTVVKLNLQKLGVAATSAPMHDDE
For the molecule B1, the binding result in assay [1] and in [2] was “binds” each time.

B2: PYL4 ABA receptor (receptor, UniProt O80920 1-207)
chain: MLAVHRPSSAVSDGDSVQIPMMIASFQKRFPSLSRDSTAARFHTHEVGPNQCCSAVIQEISAPISTVWSVVRRFDNPQAYKHFLKSCSVIGGDGDNVGSLRQVHVVSGLPAASSTERLDILDDERHVISFSVVGGDHRLSNYRSVTTLHPSPISGTVVVESYVVDVPPGNTKEETCDFVDVIVRCNLQSLAKIAENTAAESKKKMSL
For the molecule B2, the binding result in assay [1] and in assay [2] was “binds” each time.

B3: PINOID (PID) kinase (enzyme, UniProt O64682 1-438)
chain: MLRESDGEMSLGTTNSPISSGTESCSSFSRLSFDAPPSTIPEEESFLSLKPHRSSDFAYAEIRRRKKQGLTFRDFRLMRRIGAGDIGTVYLCRLAGDEEESRSSYFAMKVVDKEALALKKKMHRAEMEKTILKMLDHPFLPTLYAEFEASHFSCIVMEYCSGGDLHSLRHRQPHRRFSLSSARFYAAEVLVALEYLHMLGIIYRDLKPENILVRSDGHIMLSDFDLSLCSDSIAAVESSSSSPENQQLRSPRRFTRLARLFQRVLRSKKVQTLEPTRLFVAEPVTARSGSFVGTHEYVAPEVASGGSHGNAVDWWAFGVFLYEMIYGKTPFVAPTNDVILRNIVKRQLSFPTDSPATMFELHARNLISGLLNKDPTKRLGSRRGAAEVKVHPFFKGLNFALIRTLTPPEIPSSVVKKPMKSATFSGRSSNKPAAFDYF
Consider B3, for which the binding entry in assay [12] and in assay [13] was “binds” each time.

B4: PINOID (PID) kinase, luciferase complementation fusion (enzyme, UniProt O64682 1-438)
chain: B3 chain
As for B4, the binding result in assay [14] and in [15] was “binds” each time.
